Reference: PubChem BioAssay AID1259272 (Sanger Institute, 2017)
In all, the deposit lists 794 reagents; below is a part drawn at random. Over the whole deposit, 7 (0.88%) are marked active. 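Essential calls reflect knock-down without drug only, not synergy with drugs; drug exposure length not given.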 Viability is capped at 1. Not all columns of the deposit are shown. Reagent sequences are not shown. Not given: the amount of reagent, the time to read-out.

Purpose: 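Kinome-wide siRNA search for genes whose silencing boosts targeted drug effects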 (primary screen)
Cell system: SW1116 human colorectal cancer cells
Reagent: siRNA pool against human genes
Challenge: anchor drugs BYL719 (1 µM), cetuximab (5 µg/ml) or trametinib (10 nM), or DMSO vehicle; exposure length not given
Measured: 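Cell survival as a fraction of wells given a non-targeting pool, averaged over replicates; robust z-score without drug; synergy score for each of BYL719, cetuximab and trametinib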
Scale: viability z-score, no drug: higher = more cells remaining; strongly negative means essential gene; viability, no drug: higher = more viable cells
Active means: 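a robust z-score under -3 with siRNA and no drug marks the gene essential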
Calls: active = essential (knock-down alone); inactive = no change

CSNK1A1 → viability z-score, no drug = -0.735; viability, no drug (fraction of control) = 0.832; call = inactive
PIK3CG → viability z-score, no drug = -0.245; viability, no drug (fraction of control) = 0.884; call = inactive
MED24 → viability z-score, no drug = 0.842; viability, no drug (fraction of control) = 1; call = inactive
MAP4K3 → viability z-score, no drug = -1.5; viability, no drug (fraction of control) = 0.751; call = inactive
NUP98 → viability z-score, no drug = -1.22; viability, no drug (fraction of control) = 0.78; call = inactive
MSR1 → viability z-score, no drug = 0.124; viability, no drug (fraction of control) = 0.924; call = inactive
UCK1 → viability z-score, no drug = 0.842; viability, no drug (fraction of control) = 1; call = inactive
PEAK1 → viability z-score, no drug = -1.51; viability, no drug (fraction of control) = 0.749; call = inactive
CKM → viability z-score, no drug = 0.842; viability, no drug (fraction of control) = 1; call = inactive
PLK3 → viability z-score, no drug = 0.172; viability, no drug (fraction of control) = 0.929; call = inactive
TSSK3 → viability z-score, no drug = 0.842; viability, no drug (fraction of control) = 1; call = inactive
PIK3C2G → viability z-score, no drug = -0.226; viability, no drug (fraction of control) = 0.886; call = inactive
RPS6KA2 → viability z-score, no drug = -0.999; viability, no drug (fraction of control) = 0.804; call = inactive
ELF3 → viability z-score, no drug = 0.842; viability, no drug (fraction of control) = 1; call = inactive
IKBKG → viability z-score, no drug = 0.277; viability, no drug (fraction of control) = 0.94; call = inactive
KCNH2 → viability z-score, no drug = 0.769; viability, no drug (fraction of control) = 0.992; call = inactive
CSNK2B → viability z-score, no drug = -0.383; viability, no drug (fraction of control) = 0.87; call = inactive
TWF1 → viability z-score, no drug = 0.842; viability, no drug (fraction of control) = 1; call = inactive
MST1R → viability z-score, no drug = 0.842; viability, no drug (fraction of control) = 1; call = inactive
HIPK1 → viability z-score, no drug = 0.527; viability, no drug (fraction of control) = 0.966; call = inactive
MYLK4 → viability z-score, no drug = -1.44; viability, no drug (fraction of control) = 0.757; call = inactive
PI4K2A → viability z-score, no drug = 0.842; viability, no drug (fraction of control) = 1; call = inactive
EPHB2 → viability z-score, no drug = 0.842; viability, no drug (fraction of control) = 1; call = inactive
PFKP → viability z-score, no drug = 0.159; viability, no drug (fraction of control) = 0.927; call = inactive
MAGI2 → viability z-score, no drug = 0.145; viability, no drug (fraction of control) = 0.926; call = inactive
EPHA4 → viability z-score, no drug = 0.683; viability, no drug (fraction of control) = 0.983; call = inactive
PI4K2B → viability z-score, no drug = -1.01; viability, no drug (fraction of control) = 0.802; call = inactive
COMMD3 → viability z-score, no drug = 0.761; viability, no drug (fraction of control) = 0.991; call = inactive

Laid out differently: entries from further up.
{"Gene":"IKBKG","viability z-score, no drug":0.277,"viability, no drug (fraction of control)":0.94,"call":"inactive"}
{"Gene":"KCNH2","viability z-score, no drug":0.769,"viability, no drug (fraction of control)":0.992,"call":"inactive"}
{"Gene":"CSNK2B","viability z-score, no drug":-0.383,"viability, no drug (fraction of control)":0.87,"call":"inactive"}
{"Gene":"TWF1","viability z-score, no drug":0.842,"viability, no drug (fraction of control)":1,"call":"inactive"}
